Measurements reported in PubChem BioAssay AID1259254 (NCATS, 2017).
In all, the deposit lists about 59,000 reagents; this is a random part of them. Of all reagents, about 1,550 (2.6%) are marked active. 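G2 share is only a proxy for re-replication; each gene was hit by three separate siRNAs, and active genes were retested.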 Entries without a mark were called inactive. The numbers tell different reagents against one gene apart. Further read-outs or replicates are left out here. Not stated in the record: the amount of reagent.

- Test: 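Genome-wide screen for genes that prevent DNA re-replication in cancer cells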 (primary screen)
- Cell system: human HCT116 colorectal cancer cells
- Reagent: single siRNA against human genes
- Timing: 3 days
- Detection: 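Nuclei stained with Hoechst and imaged; cell-cycle phase assigned by DNA content; G2 share scaled per plate, non-targeting siRNA 0%, GMNN siRNA 100%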
- Reading the numbers: G2 robust z-score: higher = more G2 cells, more excess DNA replication
- Rule for the call: 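Active siRNAs have a G2 robust z of 5 or more median absolute deviations over the median, which in these data means about 38% or higher of GMNN control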

Depletion of HTATSF1 (HIV-1 Tat specific factor 1) #1 resulted in: G2 robust z-score 0.101.
With knock-down of HTATSF1 (HIV-1 Tat specific factor 1) #2 the results were G2 robust z-score -0.425.
For HTATSF1 (HIV-1 Tat specific factor 1) #3, the entry reads G2 robust z-score -0.999.
Against CHGA (chromogranin A) #1, the values are G2 robust z-score -0.262.
With knock-down of CHGA (chromogranin A) #2, the screen gave G2 robust z-score -0.184.
CHGA (chromogranin A) #3 scored G2 robust z-score 0.83.
With knock-down of RNMT (RNA guanine-7 methyltransferase) #1, the screen gave G2 robust z-score -0.996.
Against RNMT (RNA guanine-7 methyltransferase) #2 the deposit lists G2 robust z-score -0.436.
RNMT (RNA guanine-7 methyltransferase) #3 scored G2 robust z-score 0.604.
OR6M1 (olfactory receptor family 6 subfamily M member 1) #1 showed G2 robust z-score 4.42.
Against OR6M1 (olfactory receptor family 6 subfamily M member 1) #2, the entry reads G2 robust z-score -0.344.
OR6M1 (olfactory receptor family 6 subfamily M member 1) #3 gave G2 robust z-score -0.488.
For ST6GALNAC5 (ST6 N-acetylgalactosaminide alpha-2,6-sialyltransferase 5) #1, the entry reads G2 robust z-score 0.0993.
With knock-down of ST6GALNAC5 (ST6 N-acetylgalactosaminide alpha-2,6-sialyltransferase 5) #2 the results were G2 robust z-score 4.
Against ST6GALNAC5 (ST6 N-acetylgalactosaminide alpha-2,6-sialyltransferase 5) #3 the deposit lists G2 robust z-score -0.392.
After knock-down of FAH (fumarylacetoacetate hydrolase) #1 the results were G2 robust z-score 0.386.
Depletion of FAH (fumarylacetoacetate hydrolase) #2 came out at: G2 robust z-score 3.08.
After knock-down of FAH (fumarylacetoacetate hydrolase) #3, the record shows G2 robust z-score 1.48.
For C10orf88 (chromosome 10 open reading frame 88) #1 the deposit lists G2 robust z-score 0.178.
After knock-down of C10orf88 (chromosome 10 open reading frame 88) #2, the record shows G2 robust z-score 2.1.
After knock-down of C10orf88 (chromosome 10 open reading frame 88) #3, the record shows G2 robust z-score 3.79.
Against TCEANC #1, the entry reads G2 robust z-score -0.15.
TCEANC #2 showed G2 robust z-score 1.15.
Knock-down of TCEANC #3 came out at: G2 robust z-score -0.318.
After knock-down of ZER1 (zyg-11 related cell cycle regulator) #1, the record shows G2 robust z-score 2.68.
Against ZER1 (zyg-11 related cell cycle regulator) #2 the deposit lists G2 robust z-score 1.11.
Silencing of ZER1 (zyg-11 related cell cycle regulator) #3 gave: G2 robust z-score -0.268.
Depletion of KLRC1 (killer cell lectin like receptor C1) #1 came out at: G2 robust z-score 0.736.
KLRC1 (killer cell lectin like receptor C1) #2 scored G2 robust z-score -1.24.
Against KLRC1 (killer cell lectin like receptor C1) #3, the values are G2 robust z-score -0.785.

Reformatted: 5 of the entries above.
{"target": "HTATSF1 (HIV-1 Tat specific factor 1)", "siRNA no.": 3, "G2 robust z-score": -0.999}
{"target": "CHGA (chromogranin A)", "siRNA no.": 1, "G2 robust z-score": -0.262}
{"target": "CHGA (chromogranin A)", "siRNA no.": 2, "G2 robust z-score": -0.184}
{"target": "CHGA (chromogranin A)", "siRNA no.": 3, "G2 robust z-score": 0.83}
{"target": "RNMT (RNA guanine-7 methyltransferase)", "siRNA no.": 1, "G2 robust z-score": -0.996}
